# Source: the supplement of paper PMC3334620
# The full ranking holds about 33,000 sequences; the median of “E-score (-0.5 to 0.5)” is about -0.016, and the highest 2% start at about 0.3. The list shows a part of the results.
# Molecular target: T1, Yer184c (UniProt P39961)
# T1 sequence: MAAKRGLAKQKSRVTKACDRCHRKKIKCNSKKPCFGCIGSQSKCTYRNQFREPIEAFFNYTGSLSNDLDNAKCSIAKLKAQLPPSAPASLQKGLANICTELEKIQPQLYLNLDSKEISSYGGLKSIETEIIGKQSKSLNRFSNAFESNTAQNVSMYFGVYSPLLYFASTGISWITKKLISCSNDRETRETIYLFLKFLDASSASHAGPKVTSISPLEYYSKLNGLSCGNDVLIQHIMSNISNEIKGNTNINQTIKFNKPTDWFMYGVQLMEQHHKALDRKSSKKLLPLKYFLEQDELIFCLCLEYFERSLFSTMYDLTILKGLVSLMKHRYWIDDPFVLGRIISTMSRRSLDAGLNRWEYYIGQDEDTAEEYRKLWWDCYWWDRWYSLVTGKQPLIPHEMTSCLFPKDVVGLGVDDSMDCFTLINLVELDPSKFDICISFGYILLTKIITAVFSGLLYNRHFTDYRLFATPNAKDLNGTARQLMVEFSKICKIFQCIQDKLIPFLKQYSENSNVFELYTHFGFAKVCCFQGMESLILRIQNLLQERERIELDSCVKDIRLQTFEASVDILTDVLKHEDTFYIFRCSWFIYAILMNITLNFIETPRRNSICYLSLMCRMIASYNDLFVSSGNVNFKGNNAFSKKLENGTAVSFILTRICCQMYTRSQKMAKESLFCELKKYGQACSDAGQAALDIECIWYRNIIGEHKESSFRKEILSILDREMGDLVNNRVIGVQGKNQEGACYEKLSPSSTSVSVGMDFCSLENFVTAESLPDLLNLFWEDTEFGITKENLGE
# Assay: PBM E-score (8-mer binding enrichment) (E-score (-0.5 to 0.5)); higher = stronger / more preferred TF binding
# Conditions: protein concentration: 100 nM; construct: GST-full length
# Procedure, shortened: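 Full-length yeast transcription factors or their DNA-binding domains, GST-tagged and expressed with PURExpress, were applied at about 100-200 nM to universal all-10-mer Agilent arrays. These arrays had been made double-stranded by primer extension on fresh or once-stripped slides. Detection used fluorescent anti-GST, normalisation used masliner, and E-scores for ungapped eight-base words pooled with reverse complements came from the Universal PBM Analysis Suite.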
row,Sequence,PBM E-score
1,AAGAACGT,0.0621
2,CCCCATGC,-0.191
3,ATCAGTAC,0.0801
4,CAGACCCG,0.179
5,ACGGGCAA,-0.0249
6,CTACTATC,0.196
7,GTCTAAAC,0.117
8,CAATTCAG,-0.0853
9,GCGTATGA,-0.0801
10,AATTATAG,0.0808
11,AACCAATG,-0.0313
12,AAGCCAAC,-0.041
13,AGGTAAGA,0.0318
14,CTAGCGAG,-0.128
15,ATCAACAT,0.13
16,CCAGTCCC,-0.247
17,TGCCTCCA,-0.411
18,CAGCGTGC,-0.0824
19,ATTTTCAC,0.19
20,CGAATATC,0.0862
21,CACCTGAG,-0.255
22,AGGATAAG,-0.0488
23,ACAGGAAT,0.0563
24,GACCAGGA,-0.223
25,TGGGTGAA,0.182

# A portion from the list above:
row,Sequence,PBM E-score
4,CAGACCCG,0.179
5,ACGGGCAA,-0.0249
6,CTACTATC,0.196
7,GTCTAAAC,0.117
8,CAATTCAG,-0.0853
9,GCGTATGA,-0.0801

# The list goes on.

row,Sequence,PBM E-score
1,GCGGCTAA,0.186
2,CGATCGAC,0.0882
3,ATTCAATA,0.143
4,TATTCTAA,0.181
5,TTCATCAA,0.0967
6,TAGCATGA,-0.107
7,ACCGTGTG,0.0157
8,GAGGTCTA,-0.226
9,GTTAGGCA,-0.133
10,CGCAATCC,0.17
11,AATTACTC,0.242
12,ACTGTCAG,-0.044
13,CGGCTTTC,0.264
14,AGCTAGAG,-0.115
15,ACCCCTCT,-0.271
16,ACTCCTTC,-0.167
17,CTCGGAAG,0.245
18,GACCTCTC,0.0267
19,AACTACCG,0.0299
20,CTAGAGAC,-0.174
21,GGGGTTGA,-0.254
22,GATAAACC,0.208
23,CGGGTCGA,0.0732
24,ACATGTGC,-0.0537
25,ACGGATTG,0.161

row,Sequence,PBM E-score
1,GATGCTGC,-0.162
2,CCTACCGA,-0.129
3,AAAGGGTG,-0.16
4,CGTTGGCA,-0.0149
5,AACATCGT,-0.0145
6,CTGACGCC,-0.224
7,CTGCCCCC,-0.436
8,AAAGGTAG,-0.169
9,ACCACCTA,-0.233
10,CACTGAAC,0.166
11,ACGCGGTC,0.00037
12,ATCCCTAG,-0.0477
13,AAGGGCAC,-0.312
14,GCATTGCA,-0.0815
15,CGGAGTCC,0.131
16,CGCGGCTA,0.283
17,ACTCATAA,0.0564
18,AGCTCATG,-0.175
19,CTCTAAAG,-0.12
20,ACGCAACC,0.0278
21,CCAAATAG,-0.175
22,CATAAATA,-0.0233
23,CGGTGTAC,-0.0899
24,CTGAAAAC,0.125
25,TCGAACGA,-0.154

# Rewritten with bars between the fields: part of the list above.
row | Sequence | PBM E-score
23 | ACAGGAAT | 0.0563
24 | GACCAGGA | -0.223
25 | TGGGTGAA | 0.182

# Next part

row,Sequence,PBM E-score
1,ATACTGAC,0.0876
2,GAGGTATC,-0.141
3,GCGATGGA,0.17
4,AGTATATA,0.334
5,CGCCCCAC,-0.197
6,AACGAGCC,-0.102
7,AGCTTGCC,0.0378
8,AGGACTCC,-0.243
9,CCACTAGA,-0.299
10,CCCACGAG,-0.161
11,ACGTGGAG,-0.352
12,CCGGCTAC,0.267
13,AGACTGTC,-0.112
14,ATGCCCTA,-0.265
15,CCTCTTCG,-0.00118
16,CTTGCCTC,-0.0167
17,CCTGGGCA,-0.276
18,ATTAAGCG,0.01
19,ACGTCTAT,-0.171
20,CGTCCGGA,0.323
21,CACGTATA,-0.0539
22,GGCAAACC,-0.11
23,AGCGTTCA,-0.306
24,AAATCTGA,0.105
25,AGCTATGA,-0.0916

row,Sequence,PBM E-score
1,CATCGGAC,0.174
2,GCGGTGAA,0.132
3,TAACCTCA,-0.0603
4,CATACCTC,-0.00547
5,GGACTCCA,-0.159
6,AGAAAACG,-0.0118
7,CCCCATGA,-0.189
8,ACCATCCA,-0.154
9,CCATCAAG,-0.143
10,AGCCTGAC,-0.194
11,GCATGTAA,-0.171
12,ATCAGGCA,-0.134
13,ACCTCTCT,-0.3
14,GACCCACC,-0.316
15,GATACCCA,-0.0454
16,AACGCTCC,-0.15
17,CACATTAA,-0.0677
18,TAGATCAA,0.0823
19,CAATCTGG,-0.145
20,AAAGTGAT,0.189
21,AAAGCGTA,-0.0609
22,GCACGATA,0.0572
23,ACTAAAGC,0.0412
24,ACTCATCC,0.0505
25,AAACAGCC,-0.0542

row,Sequence,PBM E-score
1,ATGATTGG,0.0325
2,GCTACGAA,0.0207
3,AGTAACGA,0.0513
4,GACACATA,0.0718
5,AGGAACTC,-0.0102
6,CGCTTGAG,-0.0766
7,AAGCGACA,-0.0772
8,AACGCAGC,0.0751
9,AAGGTAGT,-0.0814
10,AGATAAAA,0.187
11,AATTTCGT,0.163
12,CGATATCA,0.0879
13,CACCGTCC,-0.184
14,GCCGGTGA,0.235
15,AATCGCCG,0.261
16,ATTATATA,0.212
17,AGGCCGCA,-0.0659
18,CCGACACA,0.00368
19,TCGCTAAA,0.0346
20,CACTCACA,-0.0895
21,AGGTCCAT,-0.149
22,ACTGTTCA,-0.0211
23,GGTACTAC,0.0369
24,CTTCGGGC,-0.0555
25,CGCAGTTC,-0.00252

row,Sequence,PBM E-score
1,AGTAGCCC,-0.044
2,AGTGGCAT,-0.179
3,CCACTAAG,-0.0362
4,GCGAAGCA,-0.0165
5,AGATTTTA,-0.0159
6,TATTGGGA,-0.0671
7,GGAGGACC,-0.262
8,CACCGATG,-0.0405
9,CCCGATTA,0.0478
10,AGACTCAG,0.0226
11,AGGACTGC,-0.279
12,CTGCACAG,-0.0706
13,TAGCTAAA,0.085
14,GGGAAGAC,-0.0375
15,AGGGATGG,-0.086
16,CGGACTAA,0.235
17,AGTTTTGC,0.202
18,CACACCAG,-0.142
19,ACGACGCA,0.00815
20,AATCCCCA,-0.187
21,ACCTTTGA,0.0153
22,ATCCTCAA,0.0114
